Measurements reported in paper PMC12848046.
These are yes or no findings as the source states them, for the method shown. Binding seen in cells or lysates may run through a third protein. Some entries that bind do so weakly or less than the wild type. For some assays here: Sequences can lack the tags named with a protein.

Amino acid sequences for entries named in this document (tags omitted). A change or cut given only in a name is not applied to a line headed by its entry. Residues count along the entry.
UniProt O43791: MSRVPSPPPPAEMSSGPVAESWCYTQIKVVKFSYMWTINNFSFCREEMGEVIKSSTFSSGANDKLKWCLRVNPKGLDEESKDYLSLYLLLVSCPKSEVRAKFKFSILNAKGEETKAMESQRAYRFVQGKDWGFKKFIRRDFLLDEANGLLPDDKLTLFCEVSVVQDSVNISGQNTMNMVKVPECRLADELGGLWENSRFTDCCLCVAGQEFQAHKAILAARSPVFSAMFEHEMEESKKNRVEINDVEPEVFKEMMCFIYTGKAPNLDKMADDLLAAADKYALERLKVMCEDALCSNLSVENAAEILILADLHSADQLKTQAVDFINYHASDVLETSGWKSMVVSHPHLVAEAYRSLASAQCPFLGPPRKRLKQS
Fg-SPOP-MATH: residues 31-161 of O43791
UniProt Q93009: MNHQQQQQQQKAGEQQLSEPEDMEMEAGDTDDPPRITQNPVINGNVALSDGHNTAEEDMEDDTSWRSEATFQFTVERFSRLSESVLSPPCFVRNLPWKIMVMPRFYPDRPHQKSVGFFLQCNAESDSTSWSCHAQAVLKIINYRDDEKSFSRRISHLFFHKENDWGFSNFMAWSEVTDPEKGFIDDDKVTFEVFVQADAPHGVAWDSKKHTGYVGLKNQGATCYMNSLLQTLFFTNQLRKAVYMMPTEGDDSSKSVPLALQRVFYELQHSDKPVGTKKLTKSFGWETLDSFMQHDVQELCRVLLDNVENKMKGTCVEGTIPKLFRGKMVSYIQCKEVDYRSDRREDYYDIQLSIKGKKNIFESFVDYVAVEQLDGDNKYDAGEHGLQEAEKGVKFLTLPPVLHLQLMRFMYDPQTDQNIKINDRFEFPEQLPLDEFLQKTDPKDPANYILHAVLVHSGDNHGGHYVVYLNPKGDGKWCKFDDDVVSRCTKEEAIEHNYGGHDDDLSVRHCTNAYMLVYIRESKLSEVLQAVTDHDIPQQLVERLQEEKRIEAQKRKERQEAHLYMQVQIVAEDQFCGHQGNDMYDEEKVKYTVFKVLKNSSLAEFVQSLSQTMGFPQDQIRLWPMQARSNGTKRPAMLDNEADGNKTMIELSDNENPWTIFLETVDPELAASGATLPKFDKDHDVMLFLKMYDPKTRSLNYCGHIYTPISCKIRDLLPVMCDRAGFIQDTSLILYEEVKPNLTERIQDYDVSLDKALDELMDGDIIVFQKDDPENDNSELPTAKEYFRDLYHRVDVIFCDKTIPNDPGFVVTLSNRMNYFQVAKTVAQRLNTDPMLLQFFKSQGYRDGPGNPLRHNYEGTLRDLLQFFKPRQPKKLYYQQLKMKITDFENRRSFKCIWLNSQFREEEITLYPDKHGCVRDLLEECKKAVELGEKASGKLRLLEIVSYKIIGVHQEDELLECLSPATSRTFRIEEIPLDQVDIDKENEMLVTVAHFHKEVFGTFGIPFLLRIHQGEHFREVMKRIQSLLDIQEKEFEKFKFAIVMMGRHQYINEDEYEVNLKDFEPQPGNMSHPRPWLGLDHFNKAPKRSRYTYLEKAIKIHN

Tests used:
Myc-LZTS2 (human) = target: T1, Myc-LZTS2 (human) (UniProt Q9BRK4); assay: co-IP; 293T cells co-transfected with two tagged constructs (Fg, Myc), lysed 48 h after transfection, IP and immunoblot by the tags; cells of Fig. 1 treated with 25 uM MG132 for 4 h before harvest
T1 sequence: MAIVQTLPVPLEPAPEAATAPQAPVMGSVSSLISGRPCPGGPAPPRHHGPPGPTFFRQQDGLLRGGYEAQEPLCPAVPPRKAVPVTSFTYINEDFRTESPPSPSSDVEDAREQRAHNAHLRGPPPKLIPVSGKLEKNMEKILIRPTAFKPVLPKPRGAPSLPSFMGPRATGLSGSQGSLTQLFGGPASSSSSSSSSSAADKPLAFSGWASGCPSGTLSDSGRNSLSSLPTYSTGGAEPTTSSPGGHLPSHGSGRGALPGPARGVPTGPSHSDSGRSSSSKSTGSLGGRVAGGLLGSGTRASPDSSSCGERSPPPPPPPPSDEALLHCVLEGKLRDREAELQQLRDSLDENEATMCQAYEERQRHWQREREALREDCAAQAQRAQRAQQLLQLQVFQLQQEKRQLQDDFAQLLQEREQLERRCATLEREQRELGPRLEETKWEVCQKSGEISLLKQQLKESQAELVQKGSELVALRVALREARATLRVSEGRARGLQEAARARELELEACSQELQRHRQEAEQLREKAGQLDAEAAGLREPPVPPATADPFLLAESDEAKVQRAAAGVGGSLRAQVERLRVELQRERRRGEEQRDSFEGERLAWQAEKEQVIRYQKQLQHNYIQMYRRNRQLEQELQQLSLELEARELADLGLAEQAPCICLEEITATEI

HA-SPOP (human) = HA-SPOP (human) (UniProt O43791); assay: co-IP; competition: 293T cells expressing Myc-LZTS2 and one partner (SPOP or HAUSP, whole or N-terminal fragment) without or with the other partner co-expressed
Fg-HAUSP (human) [1] = target: Fg-HAUSP (human) (UniProt Q93009); assay: as above
Fg-SPOP F32L (human) = Fg-SPOP F32L (human) (UniProt O43791); assay: co-IP; 293T cells co-transfected with two tagged constructs (Fg, Myc), lysed 48 h after transfection, IP and immunoblot by the tags; cells of Fig. 1 treated with 25 uM MG132 for 4 h before harvest
SPOP-M35L (human) = SPOP-M35L (human) (UniProt O43791); assay: as above
Fg-HAUSP R93Q (human) = Fg-HAUSP R93Q (human) (UniProt Q93009); assay: as above
Fg-HAUSP (human) [2] = target: Fg-HAUSP (human) (UniProt Q93009); assay: as above
Fg-SPOP (human) = Fg-SPOP (human) (UniProt O43791); assay: as above
Fg-SPOP S54T (human) = Fg-SPOP S54T (human) (UniProt O43791); assay: as above
Fg-HAUSP M102L (human) = Fg-HAUSP M102L (human) (UniProt Q93009); assay: as above
Fg-SPOP-MATH (human) = Fg-SPOP-MATH (human) (UniProt O43791); assay: as above
Fg-SPOP M117I (human) = Fg-SPOP M117I (human) (UniProt O43791); assay: as above
Fg-SPOP A61T (human) = Fg-SPOP A61T (human) (UniProt O43791); assay: as above
Fg-SPOP E47K (human) = Fg-SPOP E47K (human) (UniProt O43791); assay: as above
Fg-SPOP R121Q (human) = Fg-SPOP R121Q (human) (UniProt O43791); assay: as above
[3] = target: endogenous HAUSP (human (endogenous in HCT-116 and HT-29)) (UniProt Q93009); assay: co-IP; endogenous proteins in HT-29 cell lysate, IP and immunoblot with antibodies to the proteins
[4] = target: endogenous SPOP (human (endogenous in HCT-116 and HT-29)) (UniProt O43791); assay: as above
[5] = target: endogenous HAUSP (human (endogenous in HCT-116 and HT-29)) (UniProt Q93009); assay: co-IP; endogenous proteins in HCT-116 cell lysate, IP and immunoblot with antibodies to the proteins
[6] = target: endogenous SPOP (human (endogenous in HCT-116 and HT-29)) (UniProt O43791); assay: as above

Measured: binding

Fg-SPOP (from UniProt O43791 1-374)
binds: Myc-LZTS2 (human)

Fg-HAUSP (from UniProt Q93009 1-1102) (enzyme)
binds: Myc-LZTS2 (human)

B1: Myc-LZTS2 (protein, UniProt Q9BRK4 1-669)
chain: MAIVQTLPVPLEPAPEAATAPQAPVMGSVSSLISGRPCPGGPAPPRHHGPPGPTFFRQQDGLLRGGYEAQEPLCPAVPPRKAVPVTSFTYINEDFRTESPPSPSSDVEDAREQRAHNAHLRGPPPKLIPVSGKLEKNMEKILIRPTAFKPVLPKPRGAPSLPSFMGPRATGLSGSQGSLTQLFGGPASSSSSSSSSSAADKPLAFSGWASGCPSGTLSDSGRNSLSSLPTYSTGGAEPTTSSPGGHLPSHGSGRGALPGPARGVPTGPSHSDSGRSSSSKSTGSLGGRVAGGLLGSGTRASPDSSSCGERSPPPPPPPPSDEALLHCVLEGKLRDREAELQQLRDSLDENEATMCQAYEERQRHWQREREALREDCAAQAQRAQRAQQLLQLQVFQLQQEKRQLQDDFAQLLQEREQLERRCATLEREQRELGPRLEETKWEVCQKSGEISLLKQQLKESQAELVQKGSELVALRVALREARATLRVSEGRARGLQEAARARELELEACSQELQRHRQEAEQLREKAGQLDAEAAGLREPPVPPATADPFLLAESDEAKVQRAAAGVGGSLRAQVERLRVELQRERRRGEEQRDSFEGERLAWQAEKEQVIRYQKQLQHNYIQMYRRNRQLEQELQQLSLELEARELADLGLAEQAPCICLEEITATEI
binds: HA-SPOP (human) | Fg-HAUSP (human) [1] | Fg-SPOP F32L (human) | SPOP-M35L (human) | Fg-HAUSP R93Q (human) | Fg-HAUSP (human) [2] | Fg-SPOP (human) | Fg-SPOP S54T (human) | Fg-HAUSP M102L (human) | Fg-SPOP-MATH (human) | Fg-SPOP M117I (human) | Fg-SPOP A61T (human) | Fg-SPOP E47K (human) | Fg-SPOP R121Q (human)

B2: endogenous LZTS2 (protein, UniProt Q9BRK4 1-669)
chain: MAIVQTLPVPLEPAPEAATAPQAPVMGSVSSLISGRPCPGGPAPPRHHGPPGPTFFRQQDGLLRGGYEAQEPLCPAVPPRKAVPVTSFTYINEDFRTESPPSPSSDVEDAREQRAHNAHLRGPPPKLIPVSGKLEKNMEKILIRPTAFKPVLPKPRGAPSLPSFMGPRATGLSGSQGSLTQLFGGPASSSSSSSSSSAADKPLAFSGWASGCPSGTLSDSGRNSLSSLPTYSTGGAEPTTSSPGGHLPSHGSGRGALPGPARGVPTGPSHSDSGRSSSSKSTGSLGGRVAGGLLGSGTRASPDSSSCGERSPPPPPPPPSDEALLHCVLEGKLRDREAELQQLRDSLDENEATMCQAYEERQRHWQREREALREDCAAQAQRAQRAQQLLQLQVFQLQQEKRQLQDDFAQLLQEREQLERRCATLEREQRELGPRLEETKWEVCQKSGEISLLKQQLKESQAELVQKGSELVALRVALREARATLRVSEGRARGLQEAARARELELEACSQELQRHRQEAEQLREKAGQLDAEAAGLREPPVPPATADPFLLAESDEAKVQRAAAGVGGSLRAQVERLRVELQRERRRGEEQRDSFEGERLAWQAEKEQVIRYQKQLQHNYIQMYRRNRQLEQELQQLSLELEARELADLGLAEQAPCICLEEITATEI
binds: [3] | [4] | [5] | [6]
